PubChem BioAssay AID1259254 – NCATS, 2017

Aim: 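Finding genes that stop cells copying their DNA twice in one cycle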 (primary screen)
System: human HCT116 colorectal cancer cells
Reagents: single siRNA against human genes
Duration: 3 days
Read-out: 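Imaged Hoechst DNA stain sorts each cell into a cycle phase by DNA amount; per plate, G2 fraction set to 0% for non-targeting and 100% for GMNN siRNA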
Scale: G2 robust z-score: higher = more G2 cells, more excess DNA replication
Hit rule: 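Active siRNAs have a G2 robust z of 5 or more median absolute deviations over the median, which in these data means about 38% or higher of GMNN control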
The whole screen tested about 59,000 reagents; this is a part drawn at random. About 1,550 of all reagents (2.6%) were called active. 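G2 share is only a proxy for re-replication; each gene was hit by three separate siRNAs, and active genes were retested.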 Entries without a mark were called inactive. The numbers tell different reagents against one gene apart. Not all columns of the deposit are shown. Not stated in the record: the amount of reagent.

OR5D13 #1 showed G2 robust z-score 0.433. For OR5D13 #2, the values are G2 robust z-score 0.693. Knock-down of OR5D13 #3 gave: G2 robust z-score -0.32. MNMIP1 #1 showed G2 robust z-score 0.00719. Knock-down of MNMIP1 #2 came out at: G2 robust z-score 6.77 (active). For MNMIP1 #3 the deposit lists G2 robust z-score -1.2.

Looked up above:
For “G2 robust z-score”, OR5D13 #1 has 0.433
Result for MNMIP1 #2 in “G2 robust z-score”: 6.77 (active)

The list goes on:
ZNF793 #1 scored G2 robust z-score 1. ZNF793 #2 showed G2 robust z-score 1.6. Depletion of ZNF793 #3 gave: G2 robust z-score -0.503. RLBP1 #1 gave G2 robust z-score 2.51. With knock-down of RLBP1 #2, the record shows G2 robust z-score -0.869. Against RLBP1 #3, the entry reads G2 robust z-score -1.17.
